In assay [1] the target is VEGFR-2-Ig (human) (UniProt P35968). The assay can be described thus: pull-down with receptor-Ig on protein-A sepharose, Western blot (FIG. 9C). (Immunoblotting shows a protein as a band on a membrane.)
The target in assay [2] is VEGFR-3-Ig (human) (UniProt P35916). The assay is described as above.
Assay [3] has as its target VEGFR-2-Ig (human) (UniProt P35968). The assay can be described thus: pull-down with receptor-Ig on protein-A sepharose, Western blot.
In assay [4] the target is VEGFR-3-Ig (human) (UniProt P35916). The assay is described as above.
The target in assay [5] is VEGFR-3 (as used in the biosensor analysis) (UniProt P35916). Nature of the assay: SPR biosensor (summary of Example 6).

Protein sequences, listed by entry. Tags and fused reporters are not part of them. Residues count along the entry.
UniProt P35968, residues 20-764: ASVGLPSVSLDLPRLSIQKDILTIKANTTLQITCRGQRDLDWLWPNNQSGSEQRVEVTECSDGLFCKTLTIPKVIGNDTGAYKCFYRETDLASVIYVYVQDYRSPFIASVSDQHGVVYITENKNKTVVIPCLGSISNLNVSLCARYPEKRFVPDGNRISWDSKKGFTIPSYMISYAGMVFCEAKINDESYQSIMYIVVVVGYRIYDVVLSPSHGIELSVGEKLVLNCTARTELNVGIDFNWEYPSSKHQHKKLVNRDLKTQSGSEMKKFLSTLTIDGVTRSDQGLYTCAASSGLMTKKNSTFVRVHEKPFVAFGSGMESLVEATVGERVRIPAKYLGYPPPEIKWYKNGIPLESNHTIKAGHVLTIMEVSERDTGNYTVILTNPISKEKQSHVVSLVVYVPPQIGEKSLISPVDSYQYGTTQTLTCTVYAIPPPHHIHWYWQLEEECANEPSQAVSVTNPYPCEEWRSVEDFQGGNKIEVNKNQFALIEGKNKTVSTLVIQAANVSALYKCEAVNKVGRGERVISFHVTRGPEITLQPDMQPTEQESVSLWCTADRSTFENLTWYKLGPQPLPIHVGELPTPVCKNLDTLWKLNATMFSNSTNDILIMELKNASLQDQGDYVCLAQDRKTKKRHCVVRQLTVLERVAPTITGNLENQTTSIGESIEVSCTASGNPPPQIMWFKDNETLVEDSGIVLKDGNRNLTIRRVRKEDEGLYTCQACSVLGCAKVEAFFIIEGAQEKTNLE
UniProt P35916, residues 25-775: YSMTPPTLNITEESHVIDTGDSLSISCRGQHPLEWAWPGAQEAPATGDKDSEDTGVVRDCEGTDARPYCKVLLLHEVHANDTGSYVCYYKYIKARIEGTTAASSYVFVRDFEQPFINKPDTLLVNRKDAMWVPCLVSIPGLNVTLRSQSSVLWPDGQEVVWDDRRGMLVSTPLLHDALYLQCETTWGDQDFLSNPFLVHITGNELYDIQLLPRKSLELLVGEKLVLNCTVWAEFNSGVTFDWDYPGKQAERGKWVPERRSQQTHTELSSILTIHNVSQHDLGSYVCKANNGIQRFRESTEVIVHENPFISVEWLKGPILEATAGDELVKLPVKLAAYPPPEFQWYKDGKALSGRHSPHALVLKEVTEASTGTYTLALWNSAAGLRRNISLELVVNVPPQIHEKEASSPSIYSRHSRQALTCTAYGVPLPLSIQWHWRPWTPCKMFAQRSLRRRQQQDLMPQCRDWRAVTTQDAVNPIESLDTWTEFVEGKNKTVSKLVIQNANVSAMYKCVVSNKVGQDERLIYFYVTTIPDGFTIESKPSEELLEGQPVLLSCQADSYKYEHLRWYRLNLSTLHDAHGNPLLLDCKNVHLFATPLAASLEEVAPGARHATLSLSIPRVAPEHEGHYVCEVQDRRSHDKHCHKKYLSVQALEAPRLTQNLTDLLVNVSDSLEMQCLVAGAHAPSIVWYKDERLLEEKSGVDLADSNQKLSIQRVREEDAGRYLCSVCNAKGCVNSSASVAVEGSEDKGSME

The source of these data is patent publication US20070224194A1, “Methods for Inhibiting Angiogenesis and/or Lymphangiogenesis” (LUDWIG INSTITUTE FOR CANCER RESEARCH, priority 2004, published 2007).

These are yes or no findings as the source states them, for the method shown. For some assays here: In cells and extracts the contact can be indirect. Some results given as binding are weak or reduced against the parent protein; the word gives no strength.

B1: mature form of VEGF-D generated by furin (ligand, human, UniProt O43915 89-205, looked up)
chain: FAATFYDIETLKVIDEEWQRTQCSPRETCVEVASELGKSTNTFFKPPCVNVFRCGGCCNEESLICMNTSTSYISKQLFEISVPLTSVPELVPVKVANHTGCKCLPTAPRHPYSIIRR
notes: range 89-205; Present in conditioned medium of LoVo cells co-transfected with pVDAPEX FULL-N-FLAG and pcDNA3:furin; not purified; also called ˜21 kDa VEGF-D species; mature VEGF-D
As to B1, the binding entry with VEGFR-2-Ig (human) [1], with VEGFR-3-Ig (human) [2], with VEGFR-2-Ig (human) [3] and with VEGFR-3-Ig (human) [4] was “binds” each time.

B2: VEGF-DSSTS.IISS (ligand)
chain: NEHGPVKRSSQSTLERSEQQIRAASSLEELLRITHSEDWKLWRCRLRLKSFTSMDSRSASHSSTSFAATFYDIETLKVIDEEWQRTQCSPRETCVEVASELGKSTNTFFKPPCVNVFRCGGCCNEESLICMNTSTSYISKQLFEISVPLTSVPELVPVKVANHTGCKCLPTAPRHPYSIISSSIQIPEEDRCSHSKKLCPIDMLWDSNKCKCVLQEENPLAGTEDHSHLQEPALCGPHMMFDEDRCECVCKTPCPKDLIQHPKNCSCFECKESLETCCQKHKLFHPDTCSCEDRCPFHTRPCASGKTACAKHCRFPKEKRAAQGPHSRKNP
Take B2: the binding result in assay [5] is reported as “binds”.
